Assay results published in patent publication US7011833.
Results are given in words; binding and its absence hold for the method and conditions named. Some binding calls cover weakened binding; strength is not graded here.

The chains behind the UniProt entries cited, without tags or fusion partners. Where a name states a change or a piece, a line headed by the entry shows the natural chain unless it says otherwise. Residues count along the entry.
UniProt P09793, residues 36-161: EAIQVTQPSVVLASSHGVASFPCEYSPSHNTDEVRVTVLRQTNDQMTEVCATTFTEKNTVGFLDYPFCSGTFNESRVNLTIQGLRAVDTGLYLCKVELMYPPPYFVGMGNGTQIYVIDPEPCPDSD
UniProt P42082: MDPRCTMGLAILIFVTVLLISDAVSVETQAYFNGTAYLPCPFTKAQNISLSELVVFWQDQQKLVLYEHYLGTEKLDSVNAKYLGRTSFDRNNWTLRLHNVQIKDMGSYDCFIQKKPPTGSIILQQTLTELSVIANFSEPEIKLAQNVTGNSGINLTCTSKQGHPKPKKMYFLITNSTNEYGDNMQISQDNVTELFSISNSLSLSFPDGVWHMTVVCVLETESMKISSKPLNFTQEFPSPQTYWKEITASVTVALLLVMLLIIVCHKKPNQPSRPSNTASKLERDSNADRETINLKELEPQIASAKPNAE

Tests used:
murine CD28 (murine) = target: T1, murine CD28 (murine) (UniProt P31041); assay: FACS or Biacore (not told which for which pair)
T1 sequence (looked up): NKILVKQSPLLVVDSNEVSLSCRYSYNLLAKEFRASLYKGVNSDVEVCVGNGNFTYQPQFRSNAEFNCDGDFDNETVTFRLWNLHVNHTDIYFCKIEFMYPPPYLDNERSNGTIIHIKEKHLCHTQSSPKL

murine CTLA-4 (murine) = murine CTLA-4 (murine) (UniProt P09793); assay: FACS or Biacore (not told which for which pair)

- binding (murine CD28 (murine)): binds
- binding (murine CTLA-4 (murine)): binds
Substance: murine B7-2-IgG2a fusion protein (from UniProt P42082 24-244; P01863 98-330) (Fc fusion)
